According to patent US4590061A, “Antimicrobial plaque disclosing agent” (priority 1985, dated 1986):

Test: Visual plaque disclosure scoring in healthy volunteers (Table I)
Settings: human, in vivo
Experimental: Sanguinarine chloride was compared to two standard disclosing dyes, erythrosine and sodium fluorescein. At weekly interval healthy volunteers underwent a 12-24 hour, no oral hygiene period. Subjects then used one of the following: erythrosine, sodium flourescein, or sanguinarine chloride. Subjects rinsed two times with 15 ml. of the rinse, while the erythrosine and sodium fluorescein were used according to customary practice. Color was evaluated under ambient light after erythrosine, under ambient light for sodium fluorescein, and under longwave UV fluorescent light for sanguinarine. The color was scored for location, amount, and area.
All of the disclosing agents colored soft dental deposits at gingival margins and at the dorsal surface of the tongue. […] Mean values of plaque were measured for all disclosants.
This was the oral rinse used for the tests described in Tables I, II, and III.

Row | Compound | staining of gingivae and other soft tissues
1 | O=C1OC2(c3ccc(O)cc3Oc3cc(O)ccc32)c2ccccc21 [Sodium Fluorescein] | did not
2 | C[n+]1cc2c3c(ccc2c2ccc4cc5c(cc4c21)OCO5)OCO3 [Sanguinarine] | did not
3 | O=C1OC2(c3ccccc31)c1cc(I)c(O)c(I)c1Oc1c2cc(I)c(O)c1I [Erythrosine] | stained the ginginvae and other soft tissues
